The record followed here is paper PMC5650337 (Oncotarget, 2017).

*1 amine or outer side, *2 acyl side, *3 side chain or, on linkers, in order; H or OH if unused. [ ]: non-standard residue; d: D form. βAla(3R-(1-naphthyl)) = O=C(C[C@@H](N[*:1])c1cccc2ccccc12)[*:2] Where only a bound is given, the exact number is not on record here.

This data set can be described thus: general procedure: Fmoc solid-phase peptide synthesis; Chlorotrityl chloride (CTC) resin; HCTU; PyAOP. The following applies: whole synthesis, HPLC.
Regarding Cyclo(1,10)GPR-(Anapa)FDEFWR*, the “purity (crude or final not stated)” value turned out to be 95%.

On to NH2-Arg-Anapa-Phe-Asp-OH*, for which the “purity (crude or final not stated)” value was > 95%.

Turning to “cyclo(P[dP]R[βAla(3R-(1-naphthyl))]FDDF[βAla(3R-(1-naphthyl))]R)”, the “purity (crude or final not stated)” value is > 95%.
